Measured values published in patent US8741928B2, “Protected antimicrobial compounds for high temperature applications” (Dow Global Technologies LLC, priority 2010, dated 2014).
Some of these results come from one statement about several compounds together.

System: T. thermophilus
Assay: Biocidal efficacy against thermophilic bacteria at 70° C.
Type: cell-based
Details: equivalent of 100 ppm glutaraldehyde; for Reduction in CFU/mL maintained over 18 days: over the course of 18 days
Description: b. Thermophilic Bacteria. A 48-72 hour old culture of T. thermophilus is pelleted by centrifuging at 2000 g and the pellet resuspended in 10 times the culture volume of buffer (PBS or carbonate-buffered synthetic freshwater). The suspension is distributed into 10 mL aliquots in glass screw-cap tubes. Each tube is then treated with glutaraldehyde or an adduct and incubated at 70° C. At indicated timepoints, cell density in each tube is measured via dilution to extinction by serially diluting a sample and plating dilutions on solid media.

Question: Which “Reduction in CFU/mL maintained over 18 days” value does the source give for CC12COC3CCCC(OC1)N32 (stereo not drawn) [AMPD-adduct, 2a-methyloctahydro-1,4-dioxa-2a1-azacyclopenta[cd]indene] here?
Answer: Its value is “greater than 5 log”.

Question: How did the “Reduction in CFU/mL maintained over 18 days” value turn out when OCC12COC3CCCC(OC1)N32 (stereo not drawn) [TA-adduct, (octahydro-1,4-dioxa-2a^1-azacyclopenta[cd]inden-2a-yl)methanol] was run?
Answer: Its value is “greater than 5 log”.

Question: O=CCCCC=O [glutaraldehyde, reference compound] was tested. Which “Lower CFU/mL than untreated samples” value (after 24 h exposure) did it give?
Answer: Its value is “greater than 5 log”.
